Source: ChEMBL document CHEMBL3988442, “University of Dundee, Small-Polar-MMV Screening Library” (2021).

Chains of the proteins cited; added tags and fusions are not shown. Residues count along the entry.
UniProt P9WFT3, whole entry: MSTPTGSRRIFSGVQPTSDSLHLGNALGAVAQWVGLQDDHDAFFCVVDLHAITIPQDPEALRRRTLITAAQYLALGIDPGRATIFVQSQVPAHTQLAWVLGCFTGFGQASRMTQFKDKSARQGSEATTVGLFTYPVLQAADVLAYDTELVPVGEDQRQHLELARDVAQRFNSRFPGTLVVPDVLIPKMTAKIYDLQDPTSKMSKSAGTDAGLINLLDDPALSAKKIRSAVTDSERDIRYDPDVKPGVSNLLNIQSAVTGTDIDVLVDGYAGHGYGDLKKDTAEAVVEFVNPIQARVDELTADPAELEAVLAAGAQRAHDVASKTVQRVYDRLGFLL
UniProt Q4DA54, 1-478: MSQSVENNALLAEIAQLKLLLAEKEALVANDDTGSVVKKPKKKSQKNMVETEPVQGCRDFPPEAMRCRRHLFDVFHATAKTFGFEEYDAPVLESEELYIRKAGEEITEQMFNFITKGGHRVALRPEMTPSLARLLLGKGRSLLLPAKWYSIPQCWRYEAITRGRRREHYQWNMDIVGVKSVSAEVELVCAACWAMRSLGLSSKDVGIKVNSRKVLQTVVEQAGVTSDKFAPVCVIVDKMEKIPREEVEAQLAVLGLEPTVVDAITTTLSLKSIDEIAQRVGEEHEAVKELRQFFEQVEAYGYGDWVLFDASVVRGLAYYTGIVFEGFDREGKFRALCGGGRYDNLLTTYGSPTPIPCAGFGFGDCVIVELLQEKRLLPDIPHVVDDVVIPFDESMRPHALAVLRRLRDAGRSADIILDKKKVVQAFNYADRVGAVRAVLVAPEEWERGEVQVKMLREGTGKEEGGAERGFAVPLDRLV
UniProt Q8IDJ8, 1-583: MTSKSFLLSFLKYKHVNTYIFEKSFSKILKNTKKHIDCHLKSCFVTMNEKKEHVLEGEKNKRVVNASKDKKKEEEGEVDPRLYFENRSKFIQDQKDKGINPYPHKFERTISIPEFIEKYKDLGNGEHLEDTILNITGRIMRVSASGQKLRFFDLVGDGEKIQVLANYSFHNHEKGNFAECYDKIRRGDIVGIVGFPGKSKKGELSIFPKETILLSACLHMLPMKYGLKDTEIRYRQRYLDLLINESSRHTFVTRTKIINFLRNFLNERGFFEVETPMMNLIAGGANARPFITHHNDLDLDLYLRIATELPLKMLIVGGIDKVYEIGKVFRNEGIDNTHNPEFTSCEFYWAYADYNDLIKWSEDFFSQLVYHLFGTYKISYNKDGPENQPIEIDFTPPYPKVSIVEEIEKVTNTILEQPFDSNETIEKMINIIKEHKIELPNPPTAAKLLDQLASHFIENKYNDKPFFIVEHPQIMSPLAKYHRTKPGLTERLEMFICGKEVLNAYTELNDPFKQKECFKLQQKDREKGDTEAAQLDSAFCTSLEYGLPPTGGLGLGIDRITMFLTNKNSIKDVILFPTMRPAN
UniProt P9WNZ1, whole entry: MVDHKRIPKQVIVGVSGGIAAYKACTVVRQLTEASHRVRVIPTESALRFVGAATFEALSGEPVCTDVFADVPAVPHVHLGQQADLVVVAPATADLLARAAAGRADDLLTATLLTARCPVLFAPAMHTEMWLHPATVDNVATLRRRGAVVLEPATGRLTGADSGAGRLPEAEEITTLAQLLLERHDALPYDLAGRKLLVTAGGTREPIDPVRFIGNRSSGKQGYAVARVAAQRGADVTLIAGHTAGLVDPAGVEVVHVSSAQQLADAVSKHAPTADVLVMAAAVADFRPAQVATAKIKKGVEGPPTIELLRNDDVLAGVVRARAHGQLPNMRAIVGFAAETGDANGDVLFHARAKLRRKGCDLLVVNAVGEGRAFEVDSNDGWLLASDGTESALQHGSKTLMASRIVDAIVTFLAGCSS
UniProt I6X8D2, whole entry: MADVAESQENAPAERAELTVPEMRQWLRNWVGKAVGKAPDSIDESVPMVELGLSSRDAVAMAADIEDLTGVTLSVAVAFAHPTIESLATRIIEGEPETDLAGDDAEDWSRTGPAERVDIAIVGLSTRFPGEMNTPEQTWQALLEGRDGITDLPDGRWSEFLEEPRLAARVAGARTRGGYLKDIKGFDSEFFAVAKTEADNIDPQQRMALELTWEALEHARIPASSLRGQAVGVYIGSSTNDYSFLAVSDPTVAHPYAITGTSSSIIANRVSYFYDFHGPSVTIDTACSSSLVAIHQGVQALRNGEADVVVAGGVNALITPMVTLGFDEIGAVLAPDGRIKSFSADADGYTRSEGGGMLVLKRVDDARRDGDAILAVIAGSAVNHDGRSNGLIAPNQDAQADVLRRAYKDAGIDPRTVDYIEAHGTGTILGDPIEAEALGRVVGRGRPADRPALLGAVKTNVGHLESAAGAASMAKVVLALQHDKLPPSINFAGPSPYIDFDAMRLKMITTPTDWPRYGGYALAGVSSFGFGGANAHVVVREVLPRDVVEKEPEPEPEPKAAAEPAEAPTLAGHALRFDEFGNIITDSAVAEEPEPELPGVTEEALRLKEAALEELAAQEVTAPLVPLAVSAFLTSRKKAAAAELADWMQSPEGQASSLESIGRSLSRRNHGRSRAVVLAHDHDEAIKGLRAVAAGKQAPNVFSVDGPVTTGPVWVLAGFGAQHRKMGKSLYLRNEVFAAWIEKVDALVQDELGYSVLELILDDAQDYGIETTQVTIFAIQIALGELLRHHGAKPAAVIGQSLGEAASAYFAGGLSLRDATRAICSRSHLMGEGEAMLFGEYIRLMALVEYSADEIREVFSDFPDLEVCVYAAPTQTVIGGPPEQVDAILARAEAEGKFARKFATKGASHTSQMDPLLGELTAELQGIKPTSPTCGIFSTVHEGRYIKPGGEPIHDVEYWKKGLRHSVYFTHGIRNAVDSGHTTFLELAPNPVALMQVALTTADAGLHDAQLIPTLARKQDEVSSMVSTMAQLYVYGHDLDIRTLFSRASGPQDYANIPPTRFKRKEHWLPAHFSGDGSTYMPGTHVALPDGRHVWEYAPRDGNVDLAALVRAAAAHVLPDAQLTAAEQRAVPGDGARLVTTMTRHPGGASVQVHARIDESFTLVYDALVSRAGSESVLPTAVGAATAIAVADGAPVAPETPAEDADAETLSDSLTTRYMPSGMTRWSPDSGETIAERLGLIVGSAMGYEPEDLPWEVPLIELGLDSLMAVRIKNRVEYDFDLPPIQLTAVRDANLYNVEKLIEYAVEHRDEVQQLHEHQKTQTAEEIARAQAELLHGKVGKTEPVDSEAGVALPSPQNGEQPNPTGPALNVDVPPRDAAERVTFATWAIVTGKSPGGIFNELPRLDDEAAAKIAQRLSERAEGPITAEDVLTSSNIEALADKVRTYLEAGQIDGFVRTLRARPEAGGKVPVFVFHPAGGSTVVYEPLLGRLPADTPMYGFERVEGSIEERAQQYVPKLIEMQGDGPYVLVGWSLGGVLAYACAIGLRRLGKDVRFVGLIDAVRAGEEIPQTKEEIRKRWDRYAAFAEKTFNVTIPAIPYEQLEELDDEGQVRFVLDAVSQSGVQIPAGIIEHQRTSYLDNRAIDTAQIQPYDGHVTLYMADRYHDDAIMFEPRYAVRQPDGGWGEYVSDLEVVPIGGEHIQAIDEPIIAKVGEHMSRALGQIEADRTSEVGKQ

MtTrpRS: 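Tryptophan-tRNA ligase, Mycobacterium tuberculosis (UniProt P9WFT3). Enzyme assay of tryptophanyl-tRNA synthetase; the read-out is not stated. Concentration: 10 µM. Higher most likely means stronger inhibition; the record gives no direction and few retests gave an IC50. About 65,000 compounds were tested under these conditions; 0.098% (about 64) showed 50% or more at least once.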
TcHisRS: 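Enzyme assay of histidyl-tRNA synthetase; the read-out is not stated. Target: Histidine-tRNA ligase, Trypanosoma cruzi CL Brener (UniProt Q4DA54). Compounds at 30 µM. Direction is inferred from retests: higher values go with stronger inhibition. Of about 69,000 compounds tested this way, about 31 (0.045%) reached 50% or more in at least one test.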
PfKRS1: 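Lysine-tRNA ligase, Plasmodium falciparum 3D7 (UniProt Q8IDJ8). Enzyme assay of the cytosolic lysyl-tRNA synthetase in 384-well plates, read by luminescence. Compounds at 30 µM. Direction is inferred from only a few compounds that gave an IC50; most scored high, so higher reads as stronger inhibition. Of about 69,000 compounds tested this way, about 49 (0.071%) reached 50% or more in at least one test.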
CoaBC: 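Coenzyme A biosynthesis protein CoaBC, Mycobacterium tuberculosis (UniProt P9WNZ1). Enzyme assay of CoaBC with a phosphate dye (Biomol Green) read at 650 nm. Tested at 30 µM. Higher reads as stronger inhibition, judged from the few compounds that gave an IC50. Most strong results did not repeat in a second test. Of about 67,000 compounds tested this way, about 40 (0.06%) reached 50% or more in at least one test.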
Pks13 thioesterase: 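Polyketide synthase Pks13, Mycobacterium tuberculosis (UniProt I6X8D2). Enzyme assay of the thioesterase domain of polyketide synthase 13; the read-out is not stated. Concentration: 30 µM. Higher reads as stronger inhibition (inferred from which compounds were picked for retests). Size under these conditions: about 67,000 compounds, about 300 of them at 50% or above in at least one test.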
Leishmania in macrophages: 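Cell assay of Leishmania donovani living inside macrophages; the read-out is not stated. Compounds at 30 µM. Direction is inferred from retests: higher values go with stronger inhibition. Of about 69,000 compounds tested this way, about 1,000 (1.5%) reached 50% or more in at least one test.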

The filed quantity is “Percent Effect” (%). How 0% and 100% were set is not recorded. Most values in the screen are low, and negative values occur. Compounds were drawn at random from those tested, without regard to their results. A dash means the value is not listed here; it may have been measured.

Compound | MtTrpRS | TcHisRS | PfKRS1 | CoaBC | Pks13 thioesterase | Leishmania in macrophages
O=C(c1cc2ccccc2[nH]1)N1CCCCC1Cn1cccn1 (stereo not given) | 1.038 | 4.035 | -0.5905 | 7.727 | -2.586 | -23.74
CCn1nc(CC(C)C)cc1C(=O)N1CC(c2ccncc2)C1 | -0.4036 | 5.435 | 2.223 | -14.31 | -24.88 | 24.78
CN1CCC(N2CCC(CN(Cc3ccncc3)C3CCC3)CC2)CC1 | -2.825 | 2.703 | 2.478 | -49.09 | -31.28 | 40.34
COc1ccc(C2CNCCN2C(=O)c2cccc3cccnc23)cc1 (stereo not given) | 20.12 | 3.876 | -1.273 | -4.049 | 0.4311 | -1.294
O=C(CCCc1cn[nH]c1)N1CCOCC(O)C1 (stereo not given) | 2.78 | 4.132 | 6.016 | -7.036 | -17.46 | 11.53
CNS(=O)(=O)c1cc(C(=O)NC2COc3ccccc3C2)ccc1OC (stereo not given) | 8.252 | 6.863 | -11.26 | -5.423 | 9.058 | -9.324
Cn1ccnc1CN1C[C@@H]2OCCN(c3ncccn3)[C@@H]2C1 | 3.868 | -4.926 | -3.808 | 6.599 | -13.64 | -
CC(=O)N(Cc1c(F)cccc1F)C1CCCC1 | -3.857 | 1.948 | 0.9991 | 1.814 | -18.2 | -11.78
CCCN(Cc1nc2ccccc2[nH]1)Cc1ccccc1OC | -6.052 | 2.809 | 3.354 | 6.64 | - | 2.719
Cc1ccc(F)c(C(=O)N2C[C@@H](C(=O)O)[C@H](c3ccncc3)C2)c1Cl | 0.6369 | 0 | 8.877 | -7.229 | -29.78 | 16.35
Cn1nc(C2CCCNC2)c2c(C(=O)NC3CC3)cc(C3CC3)nc21 (stereo not given) | 25.67 | -7.692 | 0.2568 | -1.316 | -22.3 | -1.985
CC(C)Oc1ccc(CNC(=O)CCN2C(=O)CCC2=O)cc1F | 3.774 | 3.79 | -0.5558 | -4.608 | -14 | 17.59
Cn1cc(NC(=O)Cc2cccs2)c(=O)n(C)c1=O | 0.5711 | 8.671 | 6.731 | -3.722 | -11.41 | 15.47
O=C1CCC2(CCNCC2)CN1Cc1nncn1CCc1ccccc1 | 3.946 | 8.929 | 7.293 | 2.893 | -7.875 | 21.75
COCC(=O)N1CCC2(CC1)c1ccccc1[C@@H](N1CCSCC1)[C@@H]2O | -3.073 | 7.303 | 3.286 | -1.006 | 19.61 | 1.618
COc1ccc(C(=O)N2CCC(Oc3ccccc3C)(C(=O)O)CC2)o1 | 7.192 | 2.532 | -2.043 | 0.2404 | -24.19 | 8.919
COc1ccc(CCC2CCCN(C(=O)CCc3cc(O)no3)C2)cc1 (stereo not given) | -0.5622 | 3.96 | 3.844 | 3.426 | -38.21 | -17.73
[H][C@]12CCN(C(=O)c3ccc4ccccc4c3)C[C@@]1([H])OCCN(C(C)=O)C2 | - | - | - | - | - | 17.31
O=C(c1cscn1)N1C[C@H]2CN(Cc3nccs3)C[C@H]2C1 | -1.137 | 5.102 | -2.556 | 2.843 | 1.508 | -
Cc1ccc(-c2cn(C3CCN(C(=O)[C@H]4CCCO4)CC3)nn2)cc1 | -0.4105 | 5.952 | -0.3823 | 5.283 | 6.646 | 7.81
Cc1cc(N2CCC(C(=O)NC3CC3)CC2)nc(-c2ccncc2)n1 | -2.669 | 9.402 | 0.335 | -7.507 | -8.663 | 19.17
Cc1cccc(-c2noc(CN3CCCC(Cn4cncn4)C3)n2)c1 (stereo not given) | 1.18 | -1.504 | 9.303 | -2.314 | -24.42 | 23.08
CN(C)c1ncccc1C(=O)N1CCc2c(ncn2C2CC2)C1 | 1.55 | -1.031 | 0.343 | 6.935 | -22.64 | 21.03
O=C(CC1CCCO1)NS(=O)(=O)Cc1cc(-c2ccccc2)no1 (stereo not given) | -0.8811 | 6 | 1.081 | -1.157 | 2.644 | -14.8
Cc1[nH]nc2ncc(C(=O)N3CCN(C(C)(C)C)CC3)cc12 | -2.639 | 1.064 | 4.277 | 9.639 | -8.973 | -5.091
Cc1ccc(C(NC(=O)CCCN2CCCCC2)C(=O)O)cc1 (stereo not given) | 0.5442 | -0.8929 | 11.08 | 4.151 | -34.21 | 13
O=C(NCc1ccco1)[C@H]1CC[C@@H]2[C@@H](CCN2c2ncccn2)O1 | 3.836 | 0.8264 | -1.434 | 3.361 | -18.85 | -
CCC1c2cccn2CCN1C(=O)c1ccno1 (stereo not given) | 2.673 | 4.018 | 9.666 | -3.571 | 3.014 | 5.765
Cc1noc(C)c1CNC(=O)N1Cc2ccccc2N(C)CC1C (stereo not given) | -0.0748 | 4.712 | 2.685 | 1.071 | -21.88 | -10.16
[H][C@@]12CCN(S(=O)(=O)C3CC3)[C@@]1([H])CCN2C(=O)c1cnccn1 | - | - | - | - | - | 1.466
Cc1ccc(C(=O)O)c(N2CC(C)(C)[C@@](C)(O)C2)n1 | 2.374 | 0.5525 | -3.154 | 0.4464 | -19.5 | 13.4
Cc1cnn(CC2CCCCN2C(=O)c2ccc3nncn3c2)c1 (stereo not given) | -12.22 | 4.52 | 0.6506 | -1.567 | -10.69 | 11.94
COc1cc2c(cc1CNCc1cccnc1-n1cccn1)OC(C)C2.Cl (stereo not given) | - | - | - | - | - | -37.4
Cc1nc(-c2ccc(F)cc2)cc(C2CCNCC2)n1 | -1.302 | 6.202 | -0.1574 | -18.04 | 5.587 | 99.23
COc1ccccc1NC(=O)NC1(c2noc(CN(C)C)n2)CCCC1 | 23.26 | 5.128 | 0.4383 | 5.97 | 18.3 | -0.5845
Cc1nn(-c2ccc(C(=O)O)cc2)c2c1C(c1ccsc1)SCC(=O)N2 (stereo not given) | -1.43 | 8.333 | 1.587 | 5.293 | -14.29 | 14.81
CC1(C)Cc2c(cnn2-c2ccccc2)C(NC2CCSCC2)C1 (stereo not given) | -8.333 | 5.464 | 0.3941 | 0.2179 | - | 17.91
N#Cc1ccc(CS(=O)(=O)NC(=O)COc2ccc3c(c2)CCC3)cc1 | -5.348 | 4.985 | -0.3146 | -3.158 | -10.4 | 0.2658
CC(C)N(C)CC(=O)NCC(Cc1ccc(F)cc1)C(N)=O (stereo not given) | -0.5869 | 4.523 | 5.082 | -1.083 | -13.11 | 41.53
CCCc1cc(C(=O)N2Cc3ccccc3C2)[nH]n1 | -4.224 | 5.844 | 8.468 | 0.8464 | -12.14 | 0.2867
CNC(=O)[C@@]12CCO[C@@H]1CCN(Cc1cccc(C)c1)C2 | -2.805 | 5.102 | 0.713 | 4.821 | 3.052 | -
CC(C)c1nc(C2CCCN2c2ncc(C(N)=O)cc2Cl)no1 (stereo not given) | 24.76 | -0.5236 | 1.37 | 16.49 | -2.453 | -52.98
O=C(O)C(F)(F)F.O=C(O)C(F)(F)F.O=S(=O)(c1ccccc1)N1CCC2(CCCN2Cc2cccnc2)C1 (stereo not given) | - | - | - | - | - | 30.88
N#Cc1cccc(NC(=O)C2CCCN2c2nccs2)c1 (stereo not given) | 6.551 | 7.918 | 0.4217 | 8.158 | -32.25 | 12.12
COc1ccc(CN(Cc2cncn2C)CC2CCCO2)c(OC)c1.O=C(O)CC(O)(CC(=O)O)C(=O)O (stereo not given) | - | - | - | - | - | 7.403
O=c1ccc(-c2cccs2)nn1CN1CCN(Cc2ccccc2)CC1 | -3.015 | -0.5464 | 1.388 | 0.6729 | -39.81 | 27.12
COCCn1c2c(ccc1=O)CCN(C(=O)Cc1ccsc1)CC2 | - | 6.145 | 2.76 | -1.818 | 4.327 | 55.32
Cc1cc2c(=O)n3c(nc2s1)CCN(C(=O)c1ccn(C)n1)CC3 | - | 0.7491 | 1.696 | -0.1239 | -16.92 | 17.61
COCc1nn(C(C)C)c2c1CCN(Cc1cccs1)C2.O=C(O)C(F)(F)F | - | - | - | - | - | 19.75
Cc1nc2c(c(NC(C)C)n1)CCN(C(=O)CCO)CC2 | - | 0 | 6.443 | 2.963 | -8.652 | 47.54
CCOCCn1nc(C)cc1C(=O)N1CC[C@@](O)(COC)C(C)(C)C1 | 1.957 | -3.518 | -4.915 | 3.981 | - | -9.714
Cc1cc2n(n1)CC(CNCc1cc(C)on1)CN2 (stereo not given) | 2.352 | 1.739 | 6.056 | -2.917 | -29.23 | 18.03
[H][C@@]12COC[C@H](C(=O)N3CCOCC3)[C@]1([H])CN(C1CCCC1)C2 | - | - | - | - | - | -14.09
Cc1cc(C(=O)NCc2cccnc2N2CCCC(O)C2)[nH]n1 (stereo not given) | 3.263 | 4.878 | 9.732 | 4.684 | -9.235 | 14.66
COC(=O)N1CCC(Nc2ccc(Cl)c(C#N)n2)C1 (stereo not given) | -3.482 | 2.212 | -0.7286 | -3.738 | 31.43 | 25.71
Fc1ccc(-c2cnc(CN3CCn4c(nnc4C4CC4)C3)o2)cc1 | -1.695 | 14.79 | -1.462 | 7.985 | -3.159 | 39.04
Cc1nsc(NCCNS(=O)(=O)c2cccc(Cl)c2)n1 | 12.75 | 3.03 | -0.2489 | 3.566 | 10.1 | -11.62